# Source: patent US20110117009A1, “DRUG CONJUGATES WITH POLYGLYCEROLS” (FREIE UNIVERSITÄT BERLIN, priority 2008, published 2011)
# Tested on: MDA-MB 231
# Assay: Cytotoxicity, luciferase readout after 72 h
# Format: cell-based
# Settings: Homo sapiens; MDA-MB 231, 72 h
# Protocol: After 72 h cells were lysed in 100 μL of luciferase assay buffer, and an aliquot of the lysate was assayed for luciferase activity.
structure (smiles),measurement,value
"COc1cccc2c1C(=O)c1c(O)c3c(c(O)c1C2=O)C[C@@](O)(C(=O)CO)C[C@@H]3O[C@H]1C[C@H](N)[C@H](O)[C@H](C)O1 [Doxorubicin, doxorubicin]",IC50,140 nM
